Reference: PubChem BioAssay AID493014 (National Center for Advancing Translational Sciences (NCATS), 2011)
Some of the results follow. The main result of the screen is listed elsewhere. These columns were measured beside it and carry no call. Most of these compounds were active or inconclusive in the main read-out, so they are no random draw. The note in brackets gives the kind of curve behind each potency; many fits are weak.

Experiment: qHTS Assay to Find Inhibitors of Chronic Active B-Cell Receptor Signaling
Conditions: ABC-DLBCL IkBa-CBG/CBR reporter, luminescence ratio (green luciferase fused to IkBa over red control in TMD8 lymphoma cells), 4 h
Method in brief: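 Doxycycline induced both beetle luciferases in TMD8 lymphoma cells; IKK-driven degradation limits the IkappaBalpha-fused green signal, while red luminescence normalises for cell number and nonspecific effects. Compounds tested up to 46 uM, 4 hrs.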

[1] = measured here: CBR red luminescence, cell number
[2] = measured here: IkBa-CBG green luminescence

SMILES | AC50 [1] | AC50 [2]
COc1ccc(S(=O)(=O)N2CCCCCC2)cc1NC(=O)Cc1n[nH]c(=O)c2ccccc12 | 11.6 µM [falling, partial curve] | 
Cc1cc(NS(=O)(=O)c2ccc(NC(=O)COc3ccc(Cl)cc3)cc2)no1 | 0.146 µM [falling, full curve, poor fit] | 
CCC(COC)NC(=O)CCc1nnc(Cc2cccc(C(F)(F)F)c2)o1 (centres undefined) | 3.16 µM [rising, single point] | 
CC(C)Oc1ccccc1C1Nc2ccccc2C(=O)N1c1ccc2c(c1)OCCO2 (centres undefined) | 29.1 µM [falling, single point] | 
CCN(c1ccccc1)S(=O)(=O)c1ccc(Oc2ccc(-n3ccnc3)cc2)nc1 | 4.47 µM [falling, single point] | 
CCC(C)NC(=O)c1cc(-c2ccccc2O)on1 (centres undefined) | 0.355 µM [falling, full curve] | 
CN1C(=O)/C(=C/C=C2\SCCN2C)OC1=S | 20 µM [rising, partial curve, poor fit] | 
O=C1CSC(=NC(=O)c2ccccc2)N1 | 29.1 µM [falling, single point] | 
O=C(CSc1n[nH]c(-c2ccccc2)n1)Nc1ncccn1 | 10 µM [falling, partial curve] | 
N#Cc1nc(-c2cccs2)oc1N1CCN(c2ccccc2)CC1 | 4.11 µM [rising, full curve] | 
N=C(N)N=Nc1c(O)[nH]c2ccc(Br)cc12 | 11.2 µM [falling, partial curve, poor fit] | 
CCc1ccc(-c2cc(C(=O)NCc3ccccn3)c3ccccc3n2)cc1 | 0.731 µM [rising, full curve, poor fit] | 
CCCCCSc1nc2c(c(=O)[nH]c(=O)n2C)n1C | 29.1 µM [rising, partial curve, poor fit] | 
O=C1CNC(=S)N1CCc1ccccc1Cl | 35.5 µM [rising, single point] | 
Cc1cccc(OCC(O)Cn2c(=N)n(CCN3CCCCC3)c3ccccc32)c1 (centres undefined) | 17.8 µM [falling, single point] | 
COC(=O)CCC(NC(=O)c1cc(-c2ccc3c(c2)OCCO3)oc1C)C(=O)OC (centres undefined) | 10 µM [falling, partial curve, poor fit] | 
COc1ccc(/C=N/NC(=O)c2[nH]c3ccc(Br)cc3c2-c2ccccc2)c(C(=O)O)c1OC | 11.2 µM [rising, partial curve] | 3.16 µM [falling, partial curve, poor fit]
Cc1[nH]nc2c1C(c1ccc(-c3ccccc3C#N)o1)C(C#N)=C(N)O2 (centres undefined) |  | 22.4 µM [falling, partial curve, poor fit]
O=C(CSc1nnnn1Cc1ccccc1)NCC(=O)c1ccccc1 | 29.1 µM [rising, single point] | 
O=c1[nH]c(NCCO)nc2c1C1(CCCC1)Cc1ccccc1-2 | 8.91 µM [falling, single point] | 
Clc1ccc(SCc2cn3ccccc3n2)cc1 | 12.6 µM [falling, partial curve] | 

Individual results from the results shown:
AC50 [1] with COc1ccc(S(=O)(=O)N2CCCCCC2)cc1NC(=O)Cc1n[nH]c(=O)c2ccccc12 is entered as 11.6 µM [falling, partial curve]
AC50 [1] with CN1C(=O)/C(=C/C=C2\SCCN2C)OC1=S is entered as 20 µM [rising, partial curve, poor fit]

The results go on.

SMILES | AC50 [1] | AC50 [2]
CCN1/C(=C/c2ccc3ccccc3[n+]2CC)C=Cc2ccccc21 | 2.91 µM [rising, partial curve, poor fit] | 
Cc1nn(C)c(C)c1/C=N/NC(=O)c1csc2ccccc12 | 20.6 µM [falling, single point] | 
CC(C)Cn1c2c(c(=O)[nH]c1=O)C(C(F)(F)F)(C(F)(F)F)N=C(CCC1CCCCC1)N2 | 1.84 µM [rising, full curve] | 
COc1ccc(N(CC(=O)NCc2ccco2)S(=O)(=O)c2ccccc2)cc1 | 5.62 µM [rising, single point] | 
O=C(CNc1cccc(C(F)(F)F)c1)N/N=C/c1cccc(Br)c1 | 5.8 µM [rising, partial curve, poor fit] | 
CCCSc1nnc(NC(=O)Nc2ccc(C)cc2)s1 | 3.55 µM [rising, full curve, poor fit] | 
CN(C)/C=C/C(=O)c1cccc(Oc2ncccn2)c1 | 12.6 µM [rising, partial curve] | 
Cc1ccc(C(=O)Nc2ccc3cn[nH]c3c2)cc1S(=O)(=O)N1CCCCC1 | 16.4 µM [falling, single point] | 
CCCSc1nnc(C(C)C)n1N | 4.61 µM [falling, single point] | 
NC(=O)CSc1nnc(Cc2csc(Nc3ccccc3)n2)n1Cc1ccccc1 | 11.2 µM [falling, single point] | 
COC(=O)c1cc(=O)n(Cc2ccco2)c(=Nc2ccc(F)cc2)s1 | 35.5 µM [falling, single point] | 
CC(C)C(NC(=O)Nc1ccccc1)C(=O)Nc1cccc(S(=O)(=O)N(C)C)c1 (centres undefined) | 25.1 µM [falling, single point] | 
O=C(NCc1nnc(SCC(=O)N2CCC(Cc3ccccc3)CC2)o1)c1ccco1 | 11.2 µM [falling, partial curve] | 
c1ccc(CSc2ccc(-c3ccc4c(c3)OCO4)nn2)cc1 | 23.1 µM [rising, single point] | 
CCC(CO)Oc1cc(NCc2cccc(Cl)c2)c2ncn(C(C)C)c2c1 (centres undefined) | 29.1 µM [falling, single point] | 
O=C(CCn1c(=O)sc2ccccc21)Nc1nc2ccccc2s1 | 10.3 µM [falling, partial curve] | 
O=C(Nc1cc(Cl)cc(Cl)c1)c1ccc(F)c(S(=O)(=O)NC2CCCCC2)c1 | 1.41 µM [rising, partial curve, poor fit] | 
COc1ccc(CCNC(=O)CCSCc2ccccc2Cl)cc1OC | 12.6 µM [rising, single point] | 
COc1cccc(-c2cc(C(=O)Nc3ccn(Cc4ccc(C)cc4)n3)no2)c1 | 1.78 µM [falling, full curve, poor fit] | 
O=C(C1CCCCC1)N1CCC(c2nc3ccccc3[nH]2)CC1 | 0.00517 µM [rising, full curve, poor fit] | 
Nc1ccccc1Sc1ccccc1[N+](=O)[O-] | 2.06 µM [rising, full curve, poor fit] | 23.1 µM [falling, partial curve, poor fit]
